These are yes or no findings as the source states them, for the method shown. Some entries that bind do so weakly or less than the wild type.
Target: T1, human 14-3-3ε (human), P62258
T1 chain: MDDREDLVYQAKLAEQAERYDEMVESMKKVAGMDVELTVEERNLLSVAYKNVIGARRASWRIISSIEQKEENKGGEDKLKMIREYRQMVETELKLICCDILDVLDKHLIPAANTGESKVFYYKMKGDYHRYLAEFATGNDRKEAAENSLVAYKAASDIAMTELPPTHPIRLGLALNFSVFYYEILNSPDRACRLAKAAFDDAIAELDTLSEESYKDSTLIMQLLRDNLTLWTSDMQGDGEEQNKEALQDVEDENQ
Test: native gel or EMSA; purified 14-3-3 isoforms (14 μM per monomer) without or with PKA (2 μM) in 50 mM Hepes-NaOH pH 7.3, 10 mM NaCl, 4 mM MgCl2, 60 μM ATP, 2 h at 30°C; non-denaturing 15% gel, pH 8.6; dimer and monomer regions of the gel; both purified
Settings: remark: other sources report otherwise

B1: human 14-3-3ε, P62258 1-255 (protein)
chain: T1 chain
With B1 the binding was “binds”.
